From PubChem BioAssay AID1347423 (Functional Genomics Laboratory (NCATS/FGL), 2020)
The campaign covered roughly 52,000 sequences. About 210 (0.4%) were called active.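 Rule for the calls: active = gene whose silencing raises cell survival under the drug, median off-target-corrected z-score across its silencing RNAs 2 or more; inactive = the rest.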 This is one part of the list.

Test: Resistance to Poly (ADP-Ribose) Polymerase inhibitor: Gene Identification via Genome-wide siRNA Screen
Details: mouse BRCA2 R2336H ES cells, olaparib, CellTiter-Glo viability; hits give high values
In short: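 Genome-wide siRNA screen (3 siRNAs/gene, 20 nM) in mouse ES cells carrying hypomorphic BRCA2 R2336H; olaparib 500 nM added 48 h post-transfection, CellTiter-Glo viability 72 h later. Normalized to plate-median negative control; MAD z-scores, gene median, seed-adjusted.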

Row | Sequence | z-score
1 | GGGCCUGAUUUGUCCUCACTT against Sytl1 | inactive: -0.455
2 | GCGGACAGGACAUUGAUCUTT against Arpc3 | inactive: -0.504
3 | GGCAGACUGCUGACAUAUGTT against Cd37 | inactive: -0.667
4 | CCAUAUCCUGAAUACACCCTT against Olfr295 | inactive: 0.525
5 | CGAGAGUAACUUUCGUCAGTT against Dedd | inactive: 1.14
6 | CGGACACUUUCUGUACUUATT against Mgat2 | inactive: -0.0657
7 | GGACCAUAUCAUUGAUAUATT against Thoc3 | inactive: -0.744
8 | CCCAUACUAAGGAACUGCATT against Tnfrsf12a | inactive: 0.0381
9 | GGCUGCUCUUGAAAAUGAUTT against D14Ertd226e | inactive: 0.368
10 | GGACUGUUUUAGAUUACUUTT against Klra4 | inactive: -1.6
11 | CCCACUUGUGGCAGUGUACTT against Stub1 | inactive: 0.958
12 | GGAAGUCCACAUUGCUGGUTT against Slc2a9 | inactive: 0.695
13 | GGCUGUGAGCAAUUCAUAGTT against Fbxl10 | inactive: -1.6
14 | GGAGGAAGAUGACCUCAUCTT against Tslpr | inactive: -0.315
15 | GCUUUUCCACAUUUUAAGGTT against BC034507 | inactive: -5.8e-05
16 | CCGACUACUUAAGUUUCCGTT against Ppp1r3c | inactive: -0.274
17 | GGAGGUAUGGCGGUGAUUATT against Krt2-39 | inactive: 0.631
18 | GGAUACAUUGAAUCAAUGGTT against Cstad | inactive: -0.482
19 | GGAUGCAUGACACAGACUUTT against Olfr47 | inactive: -1.44
20 | GGAUGUCAAUAGCAUGUGGTT against Gpr126 | inactive: 0.163
21 | GGCCUAAUCUCAGAAGCAUTT against Tead2 | inactive: -0.0375
22 | GGUACAUCCAGCACAUGGATT against Rnf25 | inactive: -2.66
23 | CCAAGGAGACGGAAUACAGTT against Tgfb1 | inactive: -1.23
24 | GGUUUUCAGCUAUCCUUGUTT against 5530601I19Rik | inactive: -0.0919
25 | GGUAAAUAGCUGUCUUGGCTT against Cerk | inactive: 0.226
26 | GCCCAUGUAUUUUUUUCUCTT against Olfr67 | inactive: -0.039

Row | Sequence | z-score
27 | GGUAGCUGUGAUAAAGCAUTT against Pcbd | inactive: 0.658
28 | GGUUCUGUAAAUUCAACUATT against 3110024A21Rik | inactive: -0.0253
29 | GGUCCCUAAAAGGUAAACUTT against Rai1 | inactive: 1
30 | GGAAGAGAAUCAAGAGCCATT against Lrrc10 | inactive: -1.41
31 | GGUAAUUGGUAGGAAGCUUTT against Olfr836 | inactive: -0.704
32 | GGUGGUUUUGAUUAAUGGGTT against Hpn | inactive: -0.386
33 | GCGCAUCUAUGAAAAAACATT against Cerk | inactive: 1.11
34 | GGCAUCUCUGUACAGGAAGTT against Mst1r | inactive: -0.0726
35 | GGUGUGGAGUACCGGAUAATT against Arhgdia | inactive: -1.42
36 | CGAAACGAGGAACUUUUAATT against 4921513E08Rik | inactive: 0.246
37 | GGAUGCUCUCUUUACUGACTT against Pib5pa | inactive: -0.0139
38 | GAAGACUCUCCAUUGGGUGTT against 1110058A15Rik | inactive: -0.422
39 | GCCCUCAAAUGGCUUGAACTT against 4930506D23Rik | inactive: -0.0921
40 | GGAGGCAGAGAUAACCUUUTT against Sphk1 | inactive: 0.831
41 | GCUCAGAUUUGCUUUAUGATT against Ube2r2 | inactive: 0.64
42 | GGUUUAAUGUUAUAUACGGTT against Olfr606 | inactive: -1.05
43 | CGAUAGCAAAGAACCUUAUTT against Mastl | inactive: 0.96
44 | GGUUGGAUGCUGAAGUAGATT against 6330416L11Rik | inactive: 1.14
45 | GGUGUCUCUCCAGGAUAACTT against Ctrl | inactive: 2.22
46 | GCCACAGUAUAGCACAAAGTT against BC005471 | inactive: -1.43
47 | GGAGGUAUUAUCUGAAUUGTT against Utp14a | inactive: -1.15
48 | CCAAUUGACGGUUUAUGUUTT against Zfp291 | inactive: -1.08
49 | CGAUAAAAUCAUUGUGGGCTT against E130103I17Rik | inactive: 1.22
50 | GGCAUGAGGAUCGUUAGAUTT against Mccc1 | inactive: 1.4
51 | GCCAGGGACUUGCUAUUGATT against Txln | inactive: -0.691
52 | GGUAGGAAAUGUUUCAUGUTT against P4ha3 | inactive: 0.696

Row | Sequence | z-score
53 | GCCAACGGAGUUCCCACUATT against Cited1 | inactive: -0.473
54 | GCCUAUGUUAAAAUACUGGTT against C2a | inactive: 0.234
55 | CGUCCUUAUCCACAACACATT against Sertad3 | inactive: -0.354
56 | GGAAGGAAGCAGAGAGUUATT against Ndel1 | inactive: 1.33
57 | GGGUAGACAGAAAGCCUUUTT against Olfr111 | inactive: -0.573
58 | GGGAGUGAGUUCUGGAGUGTT against Capn2 | inactive: 0.313
59 | GCCUAGGAUAUGUAUUAACTT against Rhbdl7 | inactive: 0.0607
60 | GAUGAAGAGGCAGGCCAAGTT against Nkx2-4 | inactive: 1.41
61 | GGCACUUGUAUAUGAACUATT against Fbxo36 | inactive: 1.1
62 | GGAGAUGUGAAGAUUCAGUTT against BC025105 | inactive: 0.558
63 | GCAGUUGAUGAUAAUGUGATT against 2810458H16Rik | inactive: -0.356
64 | GGAGCUUCGAAAAAAGUUGTT against Pex16 | inactive: 0.927
65 | GCGAGUUGAAGACUGAAGGTT against MGC54896 | inactive: -0.0265
66 | GGUAUUCACUUAAGCAUUUTT against Slco1b2 | inactive: -0.297
67 | GGAAUGUCCAAAGCAUUUATT against Olfr909 | inactive: -0.938
68 | GGUGGAUGUUCGCAUGAUUTT against Ihpk1 | inactive: 0.813
69 | GCUCCAAAUAAGCUUUUUATT against Gabra4 | inactive: 0.137
70 | GGAUGCAUACGACAUAAACTT against Cdh15 | inactive: 0.123
71 | GGUUAGACUCAGCUUCAUGTT against 4921530G04Rik | inactive: -1.11
72 | GGUUCUUAAUGCAUUCCCGTT against Cyp2d9 | inactive: 0.0841
73 | GCGAAUGUUACAUGUCAGUTT against Tdpoz5 | inactive: 0.317
74 | GCAGUGCUCUUAGUAGGACTT against Pfn3 | inactive: 1.33
75 | GCAUCGUUAUCUUUACACUTT against 5730522E02Rik | inactive: 0.225
76 | GGGUGAUCAUUCAUCAGUUTT against 0610006F02Rik | inactive: -0.0728
77 | GGUUUGAUAUCCAGGUGCATT against 3110056O03Rik | inactive: 2.99
78 | GGUGUUCUUUGAACUCAAUTT against Pcx | inactive: 1.86

Random excerpt: five entries already listed, in no set order.
Row | Sequence | z-score
63 | GCAGUUGAUGAUAAUGUGATT against 2810458H16Rik | inactive: -0.356
70 | GGAUGCAUACGACAUAAACTT against Cdh15 | inactive: 0.123
74 | GCAGUGCUCUUAGUAGGACTT against Pfn3 | inactive: 1.33
72 | GGUUCUUAAUGCAUUCCCGTT against Cyp2d9 | inactive: 0.0841
66 | GGUAUUCACUUAAGCAUUUTT against Slco1b2 | inactive: -0.297

Single values from the list:
Value of GCCUAGGAUAUGUAUUAACTT against Rhbdl7 under z-score: inactive: 0.0607
Value of GGUGUUCUUUGAACUCAAUTT against Pcx under z-score: inactive: 1.86

Next part:

Row | Sequence | z-score
79 | GGGUGCUGAACAGUCACAATT against Rab12 | inactive: -2.78
80 | GCUUCGCACCUACAUCAUGTT against Pnmt | inactive: 0.193
81 | GGUCAAGAAUGUAGCUGAUTT against Atp6v0d1 | inactive: -1.36
82 | GGGUCUGUUUCCUUCUGGUTT against Olfr214 | inactive: -1.84
83 | GGAUCCAAGGUGAAAAUAUTT against 2900046G09Rik | inactive: -1.09
84 | GGAGCACUAAAUCAAAAAATT against Ptprz1 | inactive: 0.552
85 | GGAAAAACUGGUAUCUUCCTT against MGC28180 | inactive: -0.953
86 | GGCCAGUUCUAUGUCAUGATT against Usf2 | inactive: -0.331
87 | GGAGUUAGUGGUCUCCACUTT against A130023I24Rik | inactive: 1.37
88 | GGUGGAAUUAUGCAUGCUATT against Olfr1094 | inactive: -1.55
89 | GGUUUGUGAACAGCUGUACTT against Gfra3 | inactive: -1.94
90 | GGAAAACCUGAUGACAGACTT against Apoc2 | inactive: 1.34
91 | GGUACACAUGAGACAAUAUTT against MGC51670 | inactive: -0.968
92 | GGCAGUUACCUAAAACUAUTT against Polh | inactive: -0.584
93 | GGACUGAUGGAUCCUUCCATT against Krtcap3 | inactive: -2.06
94 | GGUGAAUAAUAAAUGUCUGTT against Igsf9 | inactive: -0.828
95 | GGAUGAUGACAUGAAGUUATT against Nalp5 | inactive: -0.0827
96 | CCAUAUUUGAAGUUUGAACTT against MGC68340 | inactive: 0.969
97 | CCGCUACGCCAUGUAUAAATT against Upp1 | inactive: -0.413
98 | GGAAUAAAGAGGUUAAGGGTT against Olfr38 | inactive: 0.203
99 | CCCGCUUAUGUGUCAGCAUTT against Sdhd | inactive: 0.0555
100 | GGACUGGACACUGAAUAUGTT against Tom1l2 | inactive: 0.0995
101 | GGCUGGUAAAUCCAACUACTT against Xab2 | inactive: -0.669
102 | GGAGUAUAUCCUAUUGAUGTT against Sdc2 | inactive: -0.762
103 | GGUUAUAAGCUCCAUCUUGTT against Acy1 | inactive: 2.62
104 | CCAAACCAGGUGUUGUCUUTT against Esam1 | inactive: -0.636
